These are yes or no findings as the source states them, for the method shown. Binding seen in cells or lysates may run through a third protein. These calls come from enrichment with a bait or labelling near it, and not all partners need be listed.
B1: MCM3 (protein, UniProt P25205 1-808)
chain: MAGTVVLDDVELREAQRDYLDFLDDEEDQGIYQSKVRELISDNQYRLIVNVNDLRRKNEKRANRLLNNAFEELVAFQRALKDFVASIDATYAKQYEEFYVGLEGSFGSKHVSPRTLTSCFLSCVVCVEGIVTKCSLVRPKVVRSVHYCPATKKTIERRYSDLTTLVAFPSSSVYPTKDEENNPLETEYGLSVYKDHQTITIQEMPEKAPAGQLPRSVDVILDDDLVDKAKPGDRVQVVGTYRCLPGKKGGYTSGTFRTVLIACNVKQMSKDAQPSFSAEDIAKIKKFSKTRSKDIFDQLAKSLAPSIHGHDYVKKAILCLLLGGVERDLENGSHIRGDINILLIGDPSVAKSQLLRYVLCTAPRAIPTTGRGSSGVGLTAAVTTDQETGERRLEAGAMVLADRGVVCIDEFDKMSDMDRTAIHEVMEQGRVTIAKAGIHARLNARCSVLAAANPVYGRYDQYKTPMENIGLQDSLLSRFDLLFIMLDQMDPEQDREISDHVLRMHRYRAPGEQDGDAMPLGSAVDILATDDPNFSQEDQQDTQIYEKHDNLLHGTKKKKEKMVSAAFMKKYIHVAKIIKPVLTQESATYIAEEYSRLRSQDSMSSDTARTSPVTARTLETLIRLATAHAKARMSKTVDLQDAEEAVELVQYAYFKKVLEKEKKRKKRSEDESETEDEEEKSQEDQEQKRKRRKTRQPDAKDGDSYDPYDFSDTEEEMPQVHTPKTADSQETKESQKVELSESRLKAFKVALLDVFREAHAQSIGMNRLTESINRDSEEPFSSVEIQAALSKMQDDNQVMVSEGIIFLI
B2: MCM6 (protein, UniProt Q14566 1-821)
chain: MDLAAAAEPGAGSQHLEVRDEVAEKCQKLFLDFLEEFQSSDGEIKYLQLAEELIRPERNTLVVSFVDLEQFNQQLSTTIQEEFYRVYPYLCRALKTFVKDRKEIPLAKDFYVAFQDLPTRHKIRELTSSRIGLLTRISGQVVRTHPVHPELVSGTFLCLDCQTVIRDVEQQFKYTQPNICRNPVCANRRRFLLDTNKSRFVDFQKVRIQETQAELPRGSIPRSLEVILRAEAVESAQAGDKCDFTGTLIVVPDVSKLSTPGARAETNSRVSGVDGYETEGIRGLRALGVRDLSYRLVFLACCVAPTNPRFGGKELRDEEQTAESIKNQMTVKEWEKVFEMSQDKNLYHNLCTSLFPTIHGNDEVKRGVLLMLFGGVPKTTGEGTSLRGDINVCIVGDPSTAKSQFLKHVEEFSPRAVYTSGKASSAAGLTAAVVRDEESHEFVIEAGALMLADNGVCCIDEFDKMDVRDQVAIHEAMEQQTISITKAGVKATLNARTSILAAANPISGHYDRSKSLKQNINLSAPIMSRFDLFFILVDECNEVTDYAIARRIVDLHSRIEESIDRVYSLDDIRRYLLFARQFKPKISKESEDFIVEQYKHLRQRDGSGVTKSSWRITVRQLESMIRLSEAMARMHCCDEVQPKHVKEAFRLLNKSIIRVETPDVNLDQEEEIQMEVDEGAGGINGHADSPAPVNGINGYNEDINQESAPKASLRLGFSEYCRISNLIVLHLRKVEEEEDESALKRSELVNWYLKEIESEIDSEEELINKKRIIEKVIHRLTHYDHVLIELTQAGLKGSTEGSESYEEDPYLVVNPNYLLED
B3: RNASEH2B (protein, UniProt Q5TBB1 1-312)
chain: MAAGVDCGDGVGARQHVFLVSEYLKDASKKMKNGLMFVKLVNPCSGEGAIYLFNMCLQQLFEVKVFKEKHHSWFINQSVQSGGLLHFATPVDPLFLLLHYLIKADKEGKFQPLDQVVVDNVFPNCILLLKLPGLEKLLHHVTEEKGNPEIDNKKYYKYSKEKTLKWLEKKVNQTVAALKTNNVNVSSRVQSTAFFSGDQASTDKEEDYIRYAHGLISDYIPKELSDDLSKYLKLPEPSASLPNPPSKKIKLSDEPVEAKEDYTKFNTKDLKTEKKNSKMTAAQKALAKVDKSGMKSIDTFFGVKNKKKIGKV
B4: THOC1 (protein, UniProt Q96FV9 1-657)
chain: MSPTPPLFSLPEARTRFTKSTREALNNKNIKPLLSTFSQVPGSENEKKCTLDQAFRGILEEEIINHSSCENVLAIISLAIGGVTEGICTASTPFVLLGDVLDCLPLDQCDTIFTFVEKNVATWKSNTFYSAGKNYLLRMCNDLLRRLSKSQNTVFCGRIQLFLARLFPLSEKSGLNLQSQFNLENVTVFNTNEQESTLGQKHTEDREEGMDVEEGEMGDEEAPTTCSIPIDYNLYRKFWSLQDYFRNPVQCYEKISWKTFLKYSEEVLAVFKSYKLDDTQASRKKMEELKTGGEHVYFAKFLTSEKLMDLQLSDSNFRRHILLQYLILFQYLKGQVKFKSSNYVLTDEQSLWIEDTTKSVYQLLSENPPDGERFSKMVEHILNTEENWNSWKNEGCPSFVKERTSDTKPTRIIRKRTAPEDFLGKGPTKKILMGNEELTRLWNLCPDNMEACKSETREHMPTLEEFFEEAIEQADPENMVENEYKAVNNSNYGWRALRLLARRSPHFFQPTNQQFKSLPEYLENMVIKLAKELPPPSEEIKTGEDEDEEDNDALLKENESPDVRRDKPVTGEQIEVFANKLGEQWKILAPYLEMKDSEIRQIECDSEDMKMRAKQLLVAWQDQEGVHATPENLINALNKSGLSDLAESLTNDNETNS
B5: THOC3 (protein, UniProt Q96J01 1-351)
chain: MAVPAAAMGPSALGQSGPGSMAPWCSVSSGPSRYVLGMQELFRGHSKTREFLAHSAKVHSVAWSCDGRRLASGSFDKTASVFLLEKDRLVKENNYRGHGDSVDQLCWHPSNPDLFVTASGDKTIRIWDVRTTKCIATVNTKGENINICWSPDGQTIAVGNKDDVVTFIDAKTHRSKAEEQFKFEVNEISWNNDNNMFFLTNGNGCINILSYPELKPVQSINAHPSNCICIKFDPMGKYFATGSADALVSLWDVDELVCVRCFSRLDWPVRTLSFSHDGKMLASASEDHFIDIAEVETGDKLWEVQCESPTFTVAWHPKRPLLAFACDDKDGKYDSSREAGTVKLFGLPNDS
B6: ANLN (protein, UniProt Q9NQW6 1-1124)
chain: MDPFTEKLLERTRARRENLQRKMAERPTAAPRSMTHAKRARQPLSEASNQQPLSGGEEKSCTKPSPSKKRCSDNTEVEVSNLENKQPVESTSAKSCSPSPVSPQVQPQAADTISDSVAVPASLLGMRRGLNSRLEATAASSVKTRMQKLAEQRRRWDNDDMTDDIPESSLFSPMPSEEKAASPPRPLLSNASATPVGRRGRLANLAATICSWEDDVNHSFAKQNSVQEQPGTACLSKFSSASGASARINSSSVKQEATFCSQRDGDASLNKALSSSADDASLVNASISSSVKATSPVKSTTSITDAKSCEGQNPELLPKTPISPLKTGVSKPIVKSTLSQTVPSKGELSREICLQSQSKDKSTTPGGTGIKPFLERFGERCQEHSKESPARSTPHRTPIITPNTKAIQERLFKQDTSSSTTHLAQQLKQERQKELACLRGRFDKGNIWSAEKGGNSKSKQLETKQETHCQSTPLKKHQGVSKTQSLPVTEKVTENQIPAKNSSTEPKGFTECEMTKSSPLKITLFLEEDKSLKVTSDPKVEQKIEVIREIEMSVDDDDINSSKVINDLFSDVLEEGELDMEKSQEEMDQALAESSEEQEDALNISSMSLLAPLAQTVGVVSPESLVSTPRLELKDTSRSDESPKPGKFQRTRVPRAESGDSLGSEDRDLLYSIDAYRSQRFKETERPSIKQVIVRKEDVTSKLDEKNNAFPCQVNIKQKMQELNNEINMQQTVIYQASQALNCCVDEEHGKGSLEEAEAERLLLIATGKRTLLIDELNKLKNEGPQRKNKASPQSEFMPSKGSVTLSEIRLPLKADFVCSTVQKPDAANYYYLIILKAGAENMVATPLASTSNSLNGDALTFTTTFTLQDVSNDFEINIEVYSLVQKKDPSGLDKKKKTSKSKAITPKRLLTSITTKSNIHSSVMASPGGLSAVRTSNFALVGSYTLSLSSVGNTKFVLDKVPFLSSLEGHIYLKIKCQVNSSVEERGFLTIFEDVSGFGAWHRRWCVLSGNCISYWTYPDDEKRKNPIGRINLANCTSRQIEPANREFCARRNTFELITVRPQREDDRETLVSQCRDTLCVTKNWLSADTKEERDLWMQKLNQVLVDIRLWQPDACYKPIGKP
B7: UHRF1 (protein, UniProt Q96T88 1-793)
chain: MWIQVRTMDGRQTHTVDSLSRLTKVEELRRKIQELFHVEPGLQRLFYRGKQMEDGHTLFDYEVRLNDTIQLLVRQSLVLPHSTKERDSELSDTDSGCCLGQSESDKSSTHGEAAAETDSRPADEDMWDETELGLYKVNEYVDARDTNMGAWFEAQVVRVTRKAPSRDEPCSSTSRPALEEDVIYHVKYDDYPENGVVQMNSRDVRARARTIIKWQDLEVGQVVMLNYNPDNPKERGFWYDAEISRKRETRTARELYANVVLGDDSLNDCRIIFVDEVFKIERPGEGSPMVDNPMRRKSGPSCKHCKDDVNRLCRVCACHLCGGRQDPDKQLMCDECDMAFHIYCLDPPLSSVPSEDEWYCPECRNDASEVVLAGERLRESKKKAKMASATSSSQRDWGKGMACVGRTKECTIVPSNHYGPIPGIPVGTMWRFRVQVSESGVHRPHVAGIHGRSNDGAYSLVLAGGYEDDVDHGNFFTYTGSGGRDLSGNKRTAEQSCDQKLTNTNRALALNCFAPINDQEGAEAKDWRSGKPVRVVRNVKGGKNSKYAPAEGNRYDGIYKVVKYWPEKGKSGFLVWRYLLRRDDDEPGPWTKEGKDRIKKLGLTMQYPEGYLEALANREREKENSKREEEEQQEGGFASPRTGKGKWKRKSAGGGPSRAGSPRRTSKKTKVEPYSLTAQQSSLIREDKSNAKLWNEVLASLKDRPASGSPFQLFLSKVEETFQCICCQELVFRPITTVCQHNVCKDCLDRSFRAQVFSCPACRYDLGRSYAMQVNQPLQTVLNQLFPGYGNGR

Sequences of proteins named here, by UniProt entry; tags and fusion partners are left off.
UniProt P09874: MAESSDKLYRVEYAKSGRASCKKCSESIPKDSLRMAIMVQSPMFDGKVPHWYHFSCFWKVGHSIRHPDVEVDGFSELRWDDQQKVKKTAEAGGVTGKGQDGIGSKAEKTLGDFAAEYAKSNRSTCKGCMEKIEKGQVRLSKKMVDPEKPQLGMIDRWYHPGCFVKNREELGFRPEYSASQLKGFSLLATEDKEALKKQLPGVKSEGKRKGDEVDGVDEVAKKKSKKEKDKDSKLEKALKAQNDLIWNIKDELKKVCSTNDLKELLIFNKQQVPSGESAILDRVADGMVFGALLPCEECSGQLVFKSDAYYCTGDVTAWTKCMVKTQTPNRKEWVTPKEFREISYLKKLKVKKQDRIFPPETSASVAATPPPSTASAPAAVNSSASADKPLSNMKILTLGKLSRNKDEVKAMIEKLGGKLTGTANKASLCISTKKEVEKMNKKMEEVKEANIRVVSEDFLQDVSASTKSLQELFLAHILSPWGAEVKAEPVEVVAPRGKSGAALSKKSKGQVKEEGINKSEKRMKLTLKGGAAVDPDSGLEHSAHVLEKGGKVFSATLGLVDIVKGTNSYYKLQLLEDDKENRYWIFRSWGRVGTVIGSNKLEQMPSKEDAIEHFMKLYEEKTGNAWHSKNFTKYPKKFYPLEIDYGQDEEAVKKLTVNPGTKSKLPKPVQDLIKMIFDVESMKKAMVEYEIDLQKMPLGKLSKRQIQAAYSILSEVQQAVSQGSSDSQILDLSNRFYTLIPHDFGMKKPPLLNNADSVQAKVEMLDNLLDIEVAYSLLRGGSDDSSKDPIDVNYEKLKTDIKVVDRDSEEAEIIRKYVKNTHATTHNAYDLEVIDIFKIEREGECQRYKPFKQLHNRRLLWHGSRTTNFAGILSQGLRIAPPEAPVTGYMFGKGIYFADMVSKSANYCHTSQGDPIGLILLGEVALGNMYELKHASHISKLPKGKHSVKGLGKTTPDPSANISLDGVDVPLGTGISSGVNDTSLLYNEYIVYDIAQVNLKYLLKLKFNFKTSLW

The binders below were run against full-length PARP1 tagged on the N-terminus with APEX2 (expressed in HEK293T cells) (human) (UniProt P09874) (assay: proximity labelling; APEX2-PARP1 in HEK293T cells after olaparib or DMSO treatment; SILAC, NeutrAvidin pull-down, LC-MS/MS).

**Q.** Which binding does the source give for B1 here?
**A.** The binding was “binds”.

**Q.** For B2, which binding is on record?
**A.** Its binding is “binds”.

**Q.** Which binding does the source give for B3 here?
**A.** Its binding is “binds”.

**Q.** For B4, which binding is on record?
**A.** Its binding is “binds”.

**Q.** How did the binding turn out when B5 was run?
**A.** Its binding is “binds”.

The binders below were run against full-length PARP1 tagged on the N-terminus with APEX2 (expressed in U2OS cells) (human) (UniProt P09874) (assay: proximity labelling; APEX2-PARP1 in SILAC-labelled U2OS cells; 500 uM biotin phenol 2 h, 1 mM H2O2 2 min, against no H2O2; nuclear extract, NeutrAvidin pull-down, LC-MS/MS; FDR < 1%).

**Q.** For B6, which binding is on record?
**A.** The binding was “binds”.

**Q.** With B7 as the binder, how does the binding read?
**A.** The binding was “binds”.
